Results on 39 targets are retold here after the supplement of paper PMC10849652.

Protein sequences, listed by entry. Tags and fused reporters are not part of them. Lines headed by an entry give the natural chain unless they say otherwise; changes in a name come on top.
UniProt Q96G97: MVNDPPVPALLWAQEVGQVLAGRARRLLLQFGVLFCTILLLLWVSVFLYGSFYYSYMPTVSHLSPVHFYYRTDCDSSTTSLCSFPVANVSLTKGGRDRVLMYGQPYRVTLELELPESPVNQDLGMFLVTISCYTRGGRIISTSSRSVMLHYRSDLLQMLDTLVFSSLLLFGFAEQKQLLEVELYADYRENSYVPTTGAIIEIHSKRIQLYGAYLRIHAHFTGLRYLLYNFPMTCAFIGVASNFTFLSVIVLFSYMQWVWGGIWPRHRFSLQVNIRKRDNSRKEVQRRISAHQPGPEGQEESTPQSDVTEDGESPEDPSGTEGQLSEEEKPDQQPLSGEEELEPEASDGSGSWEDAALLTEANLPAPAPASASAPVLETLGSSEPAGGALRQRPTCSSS
UniProt Q8IWZ6: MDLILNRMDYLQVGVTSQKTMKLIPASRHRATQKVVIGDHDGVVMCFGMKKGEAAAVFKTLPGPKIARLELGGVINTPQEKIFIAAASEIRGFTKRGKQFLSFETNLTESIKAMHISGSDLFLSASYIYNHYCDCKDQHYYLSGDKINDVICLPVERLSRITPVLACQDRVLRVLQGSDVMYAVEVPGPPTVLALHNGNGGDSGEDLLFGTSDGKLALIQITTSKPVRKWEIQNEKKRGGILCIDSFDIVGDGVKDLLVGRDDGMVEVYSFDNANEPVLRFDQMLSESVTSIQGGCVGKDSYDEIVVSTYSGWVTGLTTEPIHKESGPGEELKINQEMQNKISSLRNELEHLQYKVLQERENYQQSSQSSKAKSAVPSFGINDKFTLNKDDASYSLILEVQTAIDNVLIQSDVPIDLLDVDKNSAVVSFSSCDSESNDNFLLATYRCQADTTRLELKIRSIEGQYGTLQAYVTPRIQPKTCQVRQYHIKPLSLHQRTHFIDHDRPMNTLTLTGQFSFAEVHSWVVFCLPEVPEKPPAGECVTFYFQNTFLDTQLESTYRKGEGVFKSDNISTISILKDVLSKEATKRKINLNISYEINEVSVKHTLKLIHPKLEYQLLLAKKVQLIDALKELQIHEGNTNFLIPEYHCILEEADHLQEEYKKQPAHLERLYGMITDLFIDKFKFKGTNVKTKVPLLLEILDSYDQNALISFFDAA
UniProt Q5T5X7: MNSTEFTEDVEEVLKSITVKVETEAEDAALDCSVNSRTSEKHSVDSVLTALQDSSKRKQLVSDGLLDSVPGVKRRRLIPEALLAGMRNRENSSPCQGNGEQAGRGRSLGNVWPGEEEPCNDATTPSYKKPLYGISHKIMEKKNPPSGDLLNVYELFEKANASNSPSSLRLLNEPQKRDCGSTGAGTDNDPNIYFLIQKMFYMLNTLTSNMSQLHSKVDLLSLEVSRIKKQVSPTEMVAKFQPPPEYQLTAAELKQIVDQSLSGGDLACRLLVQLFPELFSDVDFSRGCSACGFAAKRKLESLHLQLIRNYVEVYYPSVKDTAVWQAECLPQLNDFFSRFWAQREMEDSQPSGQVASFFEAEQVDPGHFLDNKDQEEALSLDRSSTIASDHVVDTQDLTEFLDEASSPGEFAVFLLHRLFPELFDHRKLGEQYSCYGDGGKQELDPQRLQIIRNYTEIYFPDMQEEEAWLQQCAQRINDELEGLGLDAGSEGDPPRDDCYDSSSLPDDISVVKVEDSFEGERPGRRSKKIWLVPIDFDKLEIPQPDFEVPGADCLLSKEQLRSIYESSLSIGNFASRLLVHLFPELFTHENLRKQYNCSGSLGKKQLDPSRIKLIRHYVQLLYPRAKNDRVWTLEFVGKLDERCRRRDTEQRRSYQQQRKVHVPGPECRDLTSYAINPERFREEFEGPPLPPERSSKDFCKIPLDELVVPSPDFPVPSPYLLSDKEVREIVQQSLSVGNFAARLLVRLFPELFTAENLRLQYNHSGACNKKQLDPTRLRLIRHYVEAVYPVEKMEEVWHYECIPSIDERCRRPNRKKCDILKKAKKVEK
UniProt Q4VC05, whole entry, looked up: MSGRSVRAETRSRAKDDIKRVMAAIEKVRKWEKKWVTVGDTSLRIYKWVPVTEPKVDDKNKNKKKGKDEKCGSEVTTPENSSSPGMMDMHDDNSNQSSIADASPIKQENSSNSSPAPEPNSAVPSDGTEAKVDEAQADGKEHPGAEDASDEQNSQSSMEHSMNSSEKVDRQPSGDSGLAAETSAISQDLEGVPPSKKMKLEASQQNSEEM
UniProt Q1RMZ1: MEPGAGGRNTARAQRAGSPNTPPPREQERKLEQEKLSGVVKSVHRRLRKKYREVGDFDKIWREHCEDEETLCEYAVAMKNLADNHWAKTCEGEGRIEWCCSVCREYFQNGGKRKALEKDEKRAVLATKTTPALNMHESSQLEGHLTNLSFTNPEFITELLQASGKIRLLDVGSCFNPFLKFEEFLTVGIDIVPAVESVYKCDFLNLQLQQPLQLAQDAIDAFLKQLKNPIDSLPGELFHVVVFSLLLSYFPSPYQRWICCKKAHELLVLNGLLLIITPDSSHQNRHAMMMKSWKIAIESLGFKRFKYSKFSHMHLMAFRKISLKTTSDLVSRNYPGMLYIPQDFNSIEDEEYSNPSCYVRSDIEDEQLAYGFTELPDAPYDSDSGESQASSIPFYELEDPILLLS
UniProt Q9P281: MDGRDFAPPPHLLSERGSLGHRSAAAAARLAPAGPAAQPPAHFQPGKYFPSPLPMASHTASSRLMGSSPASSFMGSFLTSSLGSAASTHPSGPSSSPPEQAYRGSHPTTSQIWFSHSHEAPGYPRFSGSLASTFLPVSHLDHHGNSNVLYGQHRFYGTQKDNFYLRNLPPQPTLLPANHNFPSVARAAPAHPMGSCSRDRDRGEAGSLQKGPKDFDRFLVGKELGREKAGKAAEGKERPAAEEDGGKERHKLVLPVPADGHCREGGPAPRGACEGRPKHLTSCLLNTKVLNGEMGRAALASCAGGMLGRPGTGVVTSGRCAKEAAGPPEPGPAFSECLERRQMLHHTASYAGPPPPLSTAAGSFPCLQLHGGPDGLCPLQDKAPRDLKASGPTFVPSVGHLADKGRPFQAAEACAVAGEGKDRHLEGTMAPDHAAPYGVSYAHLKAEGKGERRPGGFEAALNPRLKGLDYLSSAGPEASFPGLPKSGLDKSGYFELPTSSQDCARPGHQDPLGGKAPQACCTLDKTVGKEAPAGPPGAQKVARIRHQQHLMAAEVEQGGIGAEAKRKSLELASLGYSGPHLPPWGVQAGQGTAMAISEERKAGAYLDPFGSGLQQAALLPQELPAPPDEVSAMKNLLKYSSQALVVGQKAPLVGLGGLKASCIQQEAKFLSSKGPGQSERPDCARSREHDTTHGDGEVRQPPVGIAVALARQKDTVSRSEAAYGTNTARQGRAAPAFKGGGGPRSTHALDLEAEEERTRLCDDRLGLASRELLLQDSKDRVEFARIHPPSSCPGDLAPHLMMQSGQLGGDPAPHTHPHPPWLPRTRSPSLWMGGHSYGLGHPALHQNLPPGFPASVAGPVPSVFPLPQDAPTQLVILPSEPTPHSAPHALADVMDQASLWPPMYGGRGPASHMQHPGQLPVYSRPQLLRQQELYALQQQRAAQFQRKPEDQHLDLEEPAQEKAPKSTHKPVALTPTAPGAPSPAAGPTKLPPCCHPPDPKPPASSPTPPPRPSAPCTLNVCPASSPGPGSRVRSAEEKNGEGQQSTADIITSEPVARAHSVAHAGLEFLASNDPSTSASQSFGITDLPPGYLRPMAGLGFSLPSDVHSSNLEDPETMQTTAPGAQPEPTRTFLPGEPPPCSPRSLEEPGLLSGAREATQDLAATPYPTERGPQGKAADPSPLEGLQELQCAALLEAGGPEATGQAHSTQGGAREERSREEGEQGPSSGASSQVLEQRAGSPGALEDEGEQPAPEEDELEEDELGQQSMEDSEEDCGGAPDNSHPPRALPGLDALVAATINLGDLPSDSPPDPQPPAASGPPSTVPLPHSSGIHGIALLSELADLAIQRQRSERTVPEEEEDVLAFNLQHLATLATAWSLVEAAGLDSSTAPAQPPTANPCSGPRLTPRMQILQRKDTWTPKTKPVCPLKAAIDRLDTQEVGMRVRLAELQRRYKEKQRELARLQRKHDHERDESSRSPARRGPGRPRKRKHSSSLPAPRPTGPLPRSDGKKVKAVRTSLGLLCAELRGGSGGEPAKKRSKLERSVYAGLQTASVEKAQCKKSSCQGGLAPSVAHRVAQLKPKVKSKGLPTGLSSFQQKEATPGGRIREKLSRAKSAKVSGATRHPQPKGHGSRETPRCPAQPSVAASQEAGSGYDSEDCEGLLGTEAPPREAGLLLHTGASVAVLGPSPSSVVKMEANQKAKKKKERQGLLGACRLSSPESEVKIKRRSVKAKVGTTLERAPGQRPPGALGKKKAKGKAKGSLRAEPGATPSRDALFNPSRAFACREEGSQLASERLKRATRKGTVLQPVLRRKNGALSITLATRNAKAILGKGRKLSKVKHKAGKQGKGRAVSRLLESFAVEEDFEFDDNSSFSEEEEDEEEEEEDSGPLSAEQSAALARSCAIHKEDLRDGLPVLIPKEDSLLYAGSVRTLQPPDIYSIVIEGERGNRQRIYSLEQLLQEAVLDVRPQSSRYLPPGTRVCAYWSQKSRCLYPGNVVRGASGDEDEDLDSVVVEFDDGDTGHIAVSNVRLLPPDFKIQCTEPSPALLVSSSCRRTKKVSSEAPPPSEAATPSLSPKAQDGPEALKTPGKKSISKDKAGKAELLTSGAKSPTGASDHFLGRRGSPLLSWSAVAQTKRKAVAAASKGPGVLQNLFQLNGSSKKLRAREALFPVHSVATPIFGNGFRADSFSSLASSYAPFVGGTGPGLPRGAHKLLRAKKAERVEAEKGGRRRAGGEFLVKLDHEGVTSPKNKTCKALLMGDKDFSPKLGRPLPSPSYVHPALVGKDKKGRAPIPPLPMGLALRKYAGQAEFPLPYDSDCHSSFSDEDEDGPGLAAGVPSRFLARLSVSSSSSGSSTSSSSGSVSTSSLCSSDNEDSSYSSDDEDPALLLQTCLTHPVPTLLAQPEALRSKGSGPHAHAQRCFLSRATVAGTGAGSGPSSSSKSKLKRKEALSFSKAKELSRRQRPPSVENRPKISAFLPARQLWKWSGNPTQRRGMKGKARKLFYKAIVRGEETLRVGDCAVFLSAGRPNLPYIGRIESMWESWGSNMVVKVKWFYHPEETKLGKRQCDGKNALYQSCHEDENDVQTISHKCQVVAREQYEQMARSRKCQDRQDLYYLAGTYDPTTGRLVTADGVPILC
UniProt Q9BXY8: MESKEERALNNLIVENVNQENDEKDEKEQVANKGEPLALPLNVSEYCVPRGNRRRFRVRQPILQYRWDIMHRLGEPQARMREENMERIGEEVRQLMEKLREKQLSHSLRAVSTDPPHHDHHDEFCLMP
UniProt O75363: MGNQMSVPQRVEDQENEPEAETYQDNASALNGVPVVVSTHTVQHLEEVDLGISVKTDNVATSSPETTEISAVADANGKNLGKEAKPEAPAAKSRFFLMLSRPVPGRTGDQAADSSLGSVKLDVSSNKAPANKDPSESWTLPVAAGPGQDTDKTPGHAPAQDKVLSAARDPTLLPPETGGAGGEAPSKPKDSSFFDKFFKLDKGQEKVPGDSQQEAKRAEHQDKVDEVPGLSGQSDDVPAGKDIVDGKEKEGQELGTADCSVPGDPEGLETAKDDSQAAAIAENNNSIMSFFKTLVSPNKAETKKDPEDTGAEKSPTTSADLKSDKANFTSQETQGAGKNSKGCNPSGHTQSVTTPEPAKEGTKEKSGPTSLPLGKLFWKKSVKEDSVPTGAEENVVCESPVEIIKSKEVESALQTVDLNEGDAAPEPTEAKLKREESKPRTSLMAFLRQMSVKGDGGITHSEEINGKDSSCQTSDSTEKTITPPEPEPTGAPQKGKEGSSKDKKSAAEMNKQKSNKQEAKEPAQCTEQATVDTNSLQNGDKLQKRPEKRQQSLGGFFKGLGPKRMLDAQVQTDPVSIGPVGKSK
UniProt Q8IXM2, whole entry, looked up: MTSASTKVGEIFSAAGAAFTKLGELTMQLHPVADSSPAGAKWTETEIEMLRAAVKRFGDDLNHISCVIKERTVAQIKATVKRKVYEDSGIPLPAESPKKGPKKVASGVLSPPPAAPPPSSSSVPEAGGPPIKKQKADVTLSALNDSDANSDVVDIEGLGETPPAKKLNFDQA
UniProt Q96IK1: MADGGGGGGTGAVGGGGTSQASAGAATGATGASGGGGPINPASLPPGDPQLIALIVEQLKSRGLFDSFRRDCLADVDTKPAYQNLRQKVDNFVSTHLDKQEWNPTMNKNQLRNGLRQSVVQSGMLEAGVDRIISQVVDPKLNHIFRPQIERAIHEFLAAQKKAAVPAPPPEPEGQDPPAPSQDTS
UniProt Q5PSV4: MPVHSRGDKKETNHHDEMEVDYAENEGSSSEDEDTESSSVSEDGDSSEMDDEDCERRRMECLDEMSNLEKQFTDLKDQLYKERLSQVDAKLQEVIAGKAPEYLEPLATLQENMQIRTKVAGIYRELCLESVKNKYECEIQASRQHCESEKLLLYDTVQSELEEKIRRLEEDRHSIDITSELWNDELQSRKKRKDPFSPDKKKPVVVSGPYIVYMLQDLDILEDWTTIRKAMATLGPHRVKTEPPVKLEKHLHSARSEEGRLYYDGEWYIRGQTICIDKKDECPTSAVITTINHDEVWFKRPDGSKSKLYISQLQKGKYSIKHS

Common to all, as to test: log2 fold change, soluble protein after heating vs DMSO (PISA); higher = thermal stabilisation; K562 lysate, 10 uM; active = over 0.2 and 3.5 SD of the protein, either way, in both replicates (recomputed)
Compound in experiment [1]: c1ccc([C@@H]2C[C@H]2NC2CCNCC2)cc1
In a few lines: (§1)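 The values are log-two fold changes in thermal stability compared with solvent controls and come from duplicates. They were obtained by TMTpro 16plex LC-MS/MS, with channel sums equalised, on the supernatant after 21,000xg for 90 min. That supernatant came from crude K562 extract at 1 mg/mL protein treated with 10 μM compound for 30 min, heated for 3 min across 48°C-58°C, pooled and brought to 0.5% NP-40 at 4°C.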

Compound in experiment [2]: CC1=C2C(=CC=C1)N=C(N(C2=O)C3=CC=CC=C3C)CN4C=NC5=C(N=CN=C54)N
In outline:
as §1

Compound in experiment [3]: Cc1sc2c(c1C)C(c1ccc(Cl)cc1)=N[C@@H](CC(=O)OC(C)(C)C)c1nnc(C)n1-2
In outline:
as §1

Compound in the next experiment: C1COCCN1CCN2C3=CC=CC=C3N=C2NC(=O)C4=CC(=CC=C4)[N+](=O)[O-] [IRAK-1-4 Inhibitor I]
In outline: as §1

Compound in experiment [4]: C1=CC=C(C=C1)[C@H](COC2=CC3=C(C=C2)NC(=O)N3)NC(=O)C4=CC=CN(C4=O)CC5=CC(=C(C=C5)F)F
In outline:
as §1

Compound in experiment [5]: CC1=C(SC2=C1C(=N[C@H](C3=NN=C(N32)C)CC(=O)N)C4=CC=C(C=C4)Cl)C
In a few lines: as §1

The list shows a part of the results.

For BSCL2 isoform 4 (UniProt Q96G97), the log2 fold change in experiment [1] is inactive: 0.093.
Regarding BAK1 (UniProt Q16611), the log2 fold change was inactive: -0.127 in experiment [2], inactive: -0.271 in experiment [3] and inactive: 0.034 in experiment [1].
Taken in the same sequence, the figures for BBS7 (UniProt Q8IWZ6) were inactive: 0.035, inactive: -0.358 and inactive: 0.181.
On the same counts, the results for BPIFA1 (UniProt Q9NP55) are inactive: 0.684, inactive: -0.078 and inactive: 0.055.
On to BRD9 (UniProt Q9H8M2), for which the log2 fold change in experiment [1] is inactive: -0.051.
BIRC6, A0A3B3IUB9: the log2 fold change is inactive: 0 in experiment [2], inactive: 0.225 in experiment [3] and inactive: -0.078 in experiment [1].
For BCORL1 isoform 3 (UniProt Q5H9F3), the log2 fold change in the experiment with IRAK-1-4 Inhibitor I was inactive: -0.141; in experiment [2], inactive: 0.029; in experiment [3], inactive: 0; in experiment [1], inactive: -0.382.
BIN3 (UniProt Q9NQY0): the log2 fold change was inactive: -0.017 in experiment [4], inactive: -0.101 in experiment [5], inactive: 0.084 in experiment [3] and inactive: 0 in experiment [1].
As to BEND3 (UniProt Q5T5X7), the results for the log2 fold change in experiment [2], in experiment [3] and in experiment [1] were inactive: 0.074, inactive: 0.02 and inactive: -0.043, respectively.
Turning to BCL7A (UniProt Q4VC05), the log2 fold change in experiment [4] is inactive: -0.018; in experiment [5], inactive: 0.209; in experiment [3] it was inactive: -0.119; in experiment [1] it was inactive: 0.217.
BAIAP2 isoform 6 (UniProt Q9UQB8): the log2 fold change in experiment [1] is inactive: -0.001.
Still for that read-out and setting: then BMT2 (UniProt Q1RMZ1), with inactive: 0.123.
As for BRWD1 (UniProt Q9NSI6), the log2 fold change in experiment [3] is inactive: 0.097.
Regarding BCL7C (UniProt Q8WUZ0), the log2 fold change is inactive: 0.124 in experiment [4], inactive: 0.038 in experiment [5], inactive: -0.004 in experiment [3] and inactive: -0.035 in experiment [1].
Regarding BPIFA2 (UniProt Q96DR5), the log2 fold change in experiment [4] is inactive: 0.189; in experiment [5], inactive: -0.176; in experiment [1], inactive: -0.024.
Turning to BNIP2 (UniProt H7C096), the log2 fold change was inactive: 0.013 in experiment [4], inactive: 0.013 in experiment [5] and inactive: -0.05 in experiment [1].
For the target BAHCC1 (UniProt Q9P281), the log2 fold change in experiment [2] was inactive: 0.011; in experiment [3], inactive: -0.187; in experiment [1] it was active: -0.696.
Turning to BAG6 (UniProt F6WML8), in experiment [2], the log2 fold change was inactive: -0.04.
Still for that read-out and setting: under BRAF, A0A2R8Y8E0 stands inactive: -0.13.
As to BEX2 isoform 2 (UniProt Q9BXY8), the log2 fold change in experiment [2] is inactive: -0.066; in experiment [1] it was inactive: -0.299.
Turning to BPIFB1 (UniProt Q8TDL5), in experiment [1], the log2 fold change is inactive: -0.255.
Regarding B4GALT7 (UniProt Q9UBV7), the values for the log2 fold change in experiment [2] and in experiment [1] were inactive: 0.377 and inactive: 0.135, respectively.
With BNIP3 (UniProt Q12983), the log2 fold change was inactive: 0.034 in experiment [4], inactive: -0.053 in experiment [5], inactive: -0.023 in experiment [3] and inactive: -0.074 in experiment [1].
Regarding BBS4 isoform 2 (UniProt Q96RK4), the log2 fold change in experiment [3] is inactive: 0.034; in experiment [1] it was inactive: -0.005.
With BCAS1 isoform 2 (UniProt O75363), the values for the log2 fold change in experiment [4], in experiment [5] and in experiment [1] were inactive: 0.109, inactive: -0.038 and inactive: -0.072, respectively.
Regarding BRIP1 (UniProt Q9BX63), the log2 fold change in experiment [2] was inactive: -0.042; in experiment [3], inactive: 0.075; in experiment [1], inactive: -0.025.
Take BAP18 isoform 3 (UniProt Q8IXM2): the log2 fold change is inactive: -0.064 in experiment [2] and inactive: 0.004 in experiment [1].
On the same counts, the results for BCAP31, A0A2R8Y5M6 are inactive: -0.346 and inactive: -0.007.
Consider BRMS1 (UniProt Q9HCU9), for which the log2 fold change is inactive: -0.085 in experiment [2] and inactive: -0.018 in experiment [3].
Take BEX4 (UniProt Q9NWD9): the log2 fold change in experiment [3] was inactive: -0.085.
As to BICRA (UniProt Q9NZM4), the log2 fold change in experiment [4] was inactive: -0.077; in experiment [5] it was inactive: 0.208; in experiment [3] it was inactive: -0.122; in experiment [1], inactive: -0.142.
On to BIN1 (UniProt O00499), for which the log2 fold change in experiment [2] was inactive: -0.066; in experiment [1] it was inactive: -0.192.
Consider BAZ2A (UniProt Q9UIF9), for which the log2 fold change in experiment [1] is inactive: -0.012.
Consider BAHD1 (UniProt Q8TBE0), for which the log2 fold change in experiment [4] was inactive: 0.271; in experiment [5], inactive: 0.065; in experiment [3] it was inactive: -0.068; in experiment [1], inactive: 0.099.
As for BOD1 (UniProt Q96IK1), the log2 fold change is inactive: 0.138 in experiment [3] and inactive: 0.084 in experiment [1].
Take BRMS1L (UniProt Q5PSV4): the log2 fold change in experiment [2] is inactive: -0.001.
As for BBX (UniProt Q8WY36), the log2 fold change in experiment [3] is inactive: 0.045.
Take BTBD2 (UniProt Q9BX70): the log2 fold change in experiment [1] was inactive: -0.068.
As to B4GALT4 (UniProt O60513), the log2 fold change in experiment [3] is inactive: -0.066; in experiment [1], inactive: 0.016.
